Binding data for 1 molecule are collected here from patent publication US20050074839A1.

The chains behind the UniProt entries cited, without tags or fusion partners.
UniProt O15392: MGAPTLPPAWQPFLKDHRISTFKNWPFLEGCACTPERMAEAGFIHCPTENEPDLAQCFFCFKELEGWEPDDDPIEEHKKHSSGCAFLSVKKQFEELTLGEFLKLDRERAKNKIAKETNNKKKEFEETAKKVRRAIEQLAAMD

No constants are given. Whether binding was seen depends on the method and setting. Some results given as binding are weak or reduced against the parent protein; the word gives no strength.

Experiment [1] addresses Gal4 DB domain fused to the full length survivin peptid (pDBLeu-Survivin) (human) (UniProt O15392). The experiment is described as follows: yeast two-hybrid screen with pDBLeu-Survivin as bait.
Experiment [2] shares this target. Nature of the experiment: yeast two-hybrid screen with pDBLeu-Survivin as bait; confirmed by beta-galactosidase filter assay and growth on selective medium.

B1: Survivin interacting protein TPR1 (ligand)
chain: MAAVLQQVLERTELNKLPKSVQNKLEKFLADQQSEIDGLKGRHEKFKVESEQQYFEIEKRLSHSQERLVNETRECQSLRLELEKLNNQLKALTEKNKELEIAQDRNIAIQSQFTRTKEELEAEKRDLIRTNERLSQELEYLTEDVKRLNEKLKESNTTKGELQLKLDELQASDVSVKYREKRLEQEKELLHSQNTWLNTELKTKTDELLALGREKGNEILELKCNLENKKEEVSRLEEQMNGLKTSNEHLQKHVEDLLTKLKEAKEQQASMEEKFHNELNAHIKLSNLYKSAADDSEAKSNELTRAVEELHKLLKEAGEANKAIQDHLLEVEQSKDQMEKEMLEKIGRLEKELENANDLLSATKRKGAILSEEELAAMSPTAAAVAKIVKPGMKLTELYNAYVETQDQLLLEKLENKRINKYLDEIVKEVEAKAPILKRQREEYERAQKAVASLSVKLEQAMKEIQRLQEDTDKANKQSSVLERDNRRMEIQVKDLSQQIRVLLMELEEARGNHVIRDEEVSSADISSSSEVISQHLVSYRNIEELQQQNQRLLVALRELGETREREEQETTSSKITELQLKLESALTELEQLRKSRQHQMQLVDSIVRQRDMYRILLSQTTGVAIPLHASSLDDVSLASTPKRPSTSQTVSTPAPVPVIESTEAIEAKAALKQLQEIFENYKKEKAENEKIQNEQLEKLQEQVTDLRSQNTKISTQLDFASKRYL
For the molecule B1, the binding result in experiment [1] and in experiment [2] was “binds” each time.
